This note sets out measurements from patent US10329299B2, “Heterocyclic compounds and uses thereof” (Infinity Pharmaceuticals, Inc., priority 2013, dated 2019).

Protein sequences, listed by entry. Tags and fused reporters are not part of them. Lines headed by an entry give the natural chain unless they say otherwise; changes in a name come on top.
UniProt O00329, whole entry: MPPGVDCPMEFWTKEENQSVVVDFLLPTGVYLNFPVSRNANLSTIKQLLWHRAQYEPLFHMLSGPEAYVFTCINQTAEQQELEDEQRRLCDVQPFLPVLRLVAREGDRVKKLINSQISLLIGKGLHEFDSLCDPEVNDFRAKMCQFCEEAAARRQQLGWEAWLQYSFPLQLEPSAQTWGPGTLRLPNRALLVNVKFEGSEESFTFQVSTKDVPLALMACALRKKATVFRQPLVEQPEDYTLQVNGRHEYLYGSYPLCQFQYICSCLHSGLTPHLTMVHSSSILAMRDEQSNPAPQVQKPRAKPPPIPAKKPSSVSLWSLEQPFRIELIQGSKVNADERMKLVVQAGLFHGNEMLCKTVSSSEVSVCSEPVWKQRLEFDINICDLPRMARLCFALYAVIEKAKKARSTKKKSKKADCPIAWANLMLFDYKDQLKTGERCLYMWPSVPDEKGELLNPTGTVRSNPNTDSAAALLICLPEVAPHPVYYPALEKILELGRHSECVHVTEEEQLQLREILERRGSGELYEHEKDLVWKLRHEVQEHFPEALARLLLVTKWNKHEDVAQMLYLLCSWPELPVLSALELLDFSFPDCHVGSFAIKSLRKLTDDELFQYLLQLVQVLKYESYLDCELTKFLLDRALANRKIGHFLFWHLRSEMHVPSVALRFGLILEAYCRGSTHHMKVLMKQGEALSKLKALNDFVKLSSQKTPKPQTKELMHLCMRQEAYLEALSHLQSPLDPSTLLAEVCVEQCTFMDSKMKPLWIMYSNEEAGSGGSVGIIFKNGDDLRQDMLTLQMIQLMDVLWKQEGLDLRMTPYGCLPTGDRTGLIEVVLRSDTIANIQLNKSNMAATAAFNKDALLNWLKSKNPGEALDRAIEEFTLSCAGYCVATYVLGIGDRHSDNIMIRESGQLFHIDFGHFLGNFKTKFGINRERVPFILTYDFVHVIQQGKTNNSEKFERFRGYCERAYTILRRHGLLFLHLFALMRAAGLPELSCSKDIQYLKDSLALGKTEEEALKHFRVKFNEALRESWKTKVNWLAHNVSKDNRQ
UniProt P48736, whole entry: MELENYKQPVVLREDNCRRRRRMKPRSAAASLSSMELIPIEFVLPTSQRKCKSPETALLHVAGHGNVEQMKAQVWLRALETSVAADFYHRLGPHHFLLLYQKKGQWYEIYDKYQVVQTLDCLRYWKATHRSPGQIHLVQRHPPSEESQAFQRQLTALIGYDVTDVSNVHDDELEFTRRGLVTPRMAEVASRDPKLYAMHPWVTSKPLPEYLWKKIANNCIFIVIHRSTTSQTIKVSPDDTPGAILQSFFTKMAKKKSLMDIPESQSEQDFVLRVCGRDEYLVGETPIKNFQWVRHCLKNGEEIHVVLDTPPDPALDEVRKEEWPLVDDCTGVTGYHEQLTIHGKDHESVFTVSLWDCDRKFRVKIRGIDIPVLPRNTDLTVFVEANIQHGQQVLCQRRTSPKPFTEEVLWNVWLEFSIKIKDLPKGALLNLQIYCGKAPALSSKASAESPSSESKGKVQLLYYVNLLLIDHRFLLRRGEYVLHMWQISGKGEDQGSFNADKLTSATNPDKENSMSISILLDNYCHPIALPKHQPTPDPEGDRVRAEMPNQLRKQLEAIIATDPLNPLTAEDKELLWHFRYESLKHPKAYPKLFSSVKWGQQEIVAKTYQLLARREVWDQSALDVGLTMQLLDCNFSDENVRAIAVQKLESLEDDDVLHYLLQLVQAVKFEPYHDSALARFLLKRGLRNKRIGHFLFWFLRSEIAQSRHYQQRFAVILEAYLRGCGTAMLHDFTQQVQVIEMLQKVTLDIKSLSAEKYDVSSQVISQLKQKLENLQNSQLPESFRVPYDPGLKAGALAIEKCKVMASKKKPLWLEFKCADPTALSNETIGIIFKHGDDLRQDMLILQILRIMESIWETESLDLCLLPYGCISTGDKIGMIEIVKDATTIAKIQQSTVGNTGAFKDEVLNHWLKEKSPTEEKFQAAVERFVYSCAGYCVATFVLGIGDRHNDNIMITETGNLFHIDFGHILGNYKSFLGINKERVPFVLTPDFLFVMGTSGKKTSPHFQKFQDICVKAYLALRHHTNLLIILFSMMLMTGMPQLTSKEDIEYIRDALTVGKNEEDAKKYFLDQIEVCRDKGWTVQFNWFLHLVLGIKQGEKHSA
UniProt Q9JHG7, whole entry: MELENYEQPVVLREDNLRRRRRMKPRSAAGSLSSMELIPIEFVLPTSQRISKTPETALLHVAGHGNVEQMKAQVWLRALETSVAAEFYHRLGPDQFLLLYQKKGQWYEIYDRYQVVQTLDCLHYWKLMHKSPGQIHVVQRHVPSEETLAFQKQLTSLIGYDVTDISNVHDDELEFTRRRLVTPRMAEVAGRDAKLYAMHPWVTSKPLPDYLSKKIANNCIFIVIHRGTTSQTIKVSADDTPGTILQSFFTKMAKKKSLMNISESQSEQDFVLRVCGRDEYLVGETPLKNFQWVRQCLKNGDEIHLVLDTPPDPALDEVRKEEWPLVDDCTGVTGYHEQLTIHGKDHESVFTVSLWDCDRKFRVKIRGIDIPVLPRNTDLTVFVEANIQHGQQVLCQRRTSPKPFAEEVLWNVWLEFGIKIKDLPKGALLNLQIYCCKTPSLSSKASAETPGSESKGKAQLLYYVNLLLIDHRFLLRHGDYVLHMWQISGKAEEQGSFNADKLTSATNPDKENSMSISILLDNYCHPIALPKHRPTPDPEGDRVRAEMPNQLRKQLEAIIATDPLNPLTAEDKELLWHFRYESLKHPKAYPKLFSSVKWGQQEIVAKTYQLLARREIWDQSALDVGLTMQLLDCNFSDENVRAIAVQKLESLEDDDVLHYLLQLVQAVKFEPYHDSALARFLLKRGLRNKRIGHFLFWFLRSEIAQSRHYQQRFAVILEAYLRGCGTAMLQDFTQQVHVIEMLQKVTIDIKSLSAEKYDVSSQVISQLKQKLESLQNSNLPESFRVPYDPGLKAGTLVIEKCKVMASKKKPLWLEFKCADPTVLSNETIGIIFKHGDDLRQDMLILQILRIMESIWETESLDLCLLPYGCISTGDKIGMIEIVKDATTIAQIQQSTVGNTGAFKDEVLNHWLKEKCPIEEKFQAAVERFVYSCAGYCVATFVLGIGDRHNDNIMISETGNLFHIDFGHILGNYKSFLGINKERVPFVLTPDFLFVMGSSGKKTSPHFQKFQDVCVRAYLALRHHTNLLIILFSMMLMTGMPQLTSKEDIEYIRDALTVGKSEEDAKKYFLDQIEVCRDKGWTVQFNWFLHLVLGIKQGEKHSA
UniProt P42338, whole entry: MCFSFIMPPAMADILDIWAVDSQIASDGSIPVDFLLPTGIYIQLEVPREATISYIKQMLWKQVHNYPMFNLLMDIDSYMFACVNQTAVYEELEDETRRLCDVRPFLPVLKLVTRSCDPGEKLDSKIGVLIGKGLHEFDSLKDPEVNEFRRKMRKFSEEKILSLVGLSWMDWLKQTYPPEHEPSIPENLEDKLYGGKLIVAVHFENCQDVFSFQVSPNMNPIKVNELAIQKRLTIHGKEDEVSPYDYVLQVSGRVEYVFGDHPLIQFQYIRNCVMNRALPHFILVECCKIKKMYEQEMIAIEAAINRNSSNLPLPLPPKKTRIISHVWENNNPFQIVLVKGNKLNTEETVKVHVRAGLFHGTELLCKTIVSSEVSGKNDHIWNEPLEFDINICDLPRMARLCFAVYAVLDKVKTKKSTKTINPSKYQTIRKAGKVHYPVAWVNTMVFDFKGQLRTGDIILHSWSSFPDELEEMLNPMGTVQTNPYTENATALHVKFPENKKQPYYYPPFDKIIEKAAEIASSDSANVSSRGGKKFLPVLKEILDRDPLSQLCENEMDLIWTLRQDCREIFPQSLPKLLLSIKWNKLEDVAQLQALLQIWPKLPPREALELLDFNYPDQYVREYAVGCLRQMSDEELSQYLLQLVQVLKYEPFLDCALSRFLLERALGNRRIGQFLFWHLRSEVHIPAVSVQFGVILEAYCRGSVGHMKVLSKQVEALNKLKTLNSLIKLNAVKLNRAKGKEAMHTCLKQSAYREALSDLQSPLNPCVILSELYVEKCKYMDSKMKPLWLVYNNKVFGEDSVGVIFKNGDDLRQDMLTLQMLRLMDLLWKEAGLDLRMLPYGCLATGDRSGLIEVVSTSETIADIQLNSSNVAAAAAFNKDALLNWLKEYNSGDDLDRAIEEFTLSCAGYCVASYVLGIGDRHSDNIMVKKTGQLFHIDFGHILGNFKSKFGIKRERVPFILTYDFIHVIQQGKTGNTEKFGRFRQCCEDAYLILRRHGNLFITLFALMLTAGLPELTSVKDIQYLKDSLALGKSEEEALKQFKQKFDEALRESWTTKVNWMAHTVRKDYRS
UniProt P42336, whole entry: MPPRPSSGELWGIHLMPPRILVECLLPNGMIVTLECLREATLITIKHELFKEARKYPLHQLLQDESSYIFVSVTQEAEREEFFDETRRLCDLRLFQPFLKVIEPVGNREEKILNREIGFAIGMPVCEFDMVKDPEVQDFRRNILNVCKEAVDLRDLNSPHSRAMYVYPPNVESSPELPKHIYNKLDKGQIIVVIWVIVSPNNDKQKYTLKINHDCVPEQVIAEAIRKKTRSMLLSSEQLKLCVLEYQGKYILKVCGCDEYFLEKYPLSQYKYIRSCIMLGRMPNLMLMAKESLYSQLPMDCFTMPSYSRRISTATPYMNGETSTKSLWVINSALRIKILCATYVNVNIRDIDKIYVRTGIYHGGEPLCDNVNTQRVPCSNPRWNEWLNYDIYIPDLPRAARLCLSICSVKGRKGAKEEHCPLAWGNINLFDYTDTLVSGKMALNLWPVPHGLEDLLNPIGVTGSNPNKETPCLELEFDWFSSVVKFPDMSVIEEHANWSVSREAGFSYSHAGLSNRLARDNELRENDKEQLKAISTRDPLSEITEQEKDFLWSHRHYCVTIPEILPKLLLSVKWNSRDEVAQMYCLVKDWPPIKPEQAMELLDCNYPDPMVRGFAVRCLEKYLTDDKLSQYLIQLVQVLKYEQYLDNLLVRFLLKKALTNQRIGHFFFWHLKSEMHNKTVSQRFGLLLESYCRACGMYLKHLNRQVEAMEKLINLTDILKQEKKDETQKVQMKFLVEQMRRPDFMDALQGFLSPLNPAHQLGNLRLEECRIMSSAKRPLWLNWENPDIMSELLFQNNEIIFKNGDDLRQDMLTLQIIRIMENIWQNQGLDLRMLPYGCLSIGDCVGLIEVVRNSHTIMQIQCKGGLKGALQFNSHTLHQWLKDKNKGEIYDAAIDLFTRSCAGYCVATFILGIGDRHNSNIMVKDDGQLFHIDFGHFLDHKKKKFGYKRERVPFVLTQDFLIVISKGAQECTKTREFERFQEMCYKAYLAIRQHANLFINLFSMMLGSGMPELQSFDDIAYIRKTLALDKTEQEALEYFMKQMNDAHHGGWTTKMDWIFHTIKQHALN
UniProt P27986, whole entry partner: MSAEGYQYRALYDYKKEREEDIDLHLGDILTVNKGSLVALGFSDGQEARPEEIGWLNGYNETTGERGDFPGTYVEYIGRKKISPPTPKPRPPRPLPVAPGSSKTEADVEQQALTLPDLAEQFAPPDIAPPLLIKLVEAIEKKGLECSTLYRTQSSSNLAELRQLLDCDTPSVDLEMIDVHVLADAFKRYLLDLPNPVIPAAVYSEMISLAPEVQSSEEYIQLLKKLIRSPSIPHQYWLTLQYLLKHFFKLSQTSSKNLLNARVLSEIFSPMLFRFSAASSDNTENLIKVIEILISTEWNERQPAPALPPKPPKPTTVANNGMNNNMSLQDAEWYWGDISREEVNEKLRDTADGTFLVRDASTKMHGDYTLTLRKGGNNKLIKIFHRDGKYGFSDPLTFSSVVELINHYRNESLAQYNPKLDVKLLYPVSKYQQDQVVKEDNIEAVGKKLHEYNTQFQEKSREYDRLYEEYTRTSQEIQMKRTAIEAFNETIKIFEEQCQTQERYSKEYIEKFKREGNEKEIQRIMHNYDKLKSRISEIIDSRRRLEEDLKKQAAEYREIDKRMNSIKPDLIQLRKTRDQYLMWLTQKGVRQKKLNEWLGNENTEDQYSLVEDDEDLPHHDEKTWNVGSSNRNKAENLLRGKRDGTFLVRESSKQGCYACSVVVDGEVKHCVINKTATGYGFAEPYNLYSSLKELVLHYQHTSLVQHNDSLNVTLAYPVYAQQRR

The match of structure and compound is tentative.

In experiment [1] the target is PI3K-δ (Homo sapiens (Human), UniProt O00329). Briefly: PI3K-δ selective cellular assay: phospho-AKT in anti-human IgM stimulated RAJI cells. Conditions: read-out: RAJI p110 δ assay IC50.
Experiment [2] deals with δ isoform of human Class I PI3 kinases (Homo sapiens (Human), UniProt O00329). Briefly: PI3-Kinase Promega ADP-Glo Max assay, δ isoform. Format: biochemical. Conditions: read-out: PI3K δ IC50. A general note: ADP-Glo turns the ADP formed in a reaction into a luminescent signal.
Experiment [3] concerns the target γ isoform of human Class I PI3 kinases (Homo sapiens (Human), UniProt P48736). Briefly: PI3-Kinase Promega ADP-Glo Max assay, γ isoform. Format: biochemical.
The target in experiment [4] is PI3K-γ (Mus musculus (Mouse), UniProt Q9JHG7). Briefly: PI3K-γ selective cellular assay: phospho-AKT in C5a stimulated RAW264.7 macrophages. Format: cell-based.
Experiment [5] has as its target β isoform of human Class I PI3 kinases (Homo sapiens (Human), UniProt P42338). Briefly: PI3-Kinase Promega ADP-Glo Max assay, β isoform. Format: biochemical. The conditions noted are these: read-out: PI3K β IC50.
The target of experiment [6] is α isoform of human Class I PI3 kinases (Homo sapiens (Human), UniProt P42336). Briefly: PI3-Kinase Promega ADP-Glo Max assay, α isoform. Format: biochemical. The conditions noted are these: read-out: PI3K α IC50.

As a reminder, the IC50 is the concentration at which inhibition is half-maximal. Consider `Cc1nc(C#Cc2cccc3nc([C@H](C)NC(=O)c4c(N)nn5cccnc45)n(-c4ccccc4)c(=O)c23)cs1`, for which the IC50 in experiment [1] was in the range of 500 to 1000 nM; in experiment [2], 5000 to 10000 nM; in experiment [3] (read-out: PI3K γ IC50) it was 1 to 100 nM; in experiment [4] (read-out: Raw264.7 p110 γ assay IC50, phospho-AKT, Raw264.7 cells) it was 1 to 50 nM; in experiment [5], 5000 to 10000 nM; in experiment [6], 5000 to 10000 nM. Also, the “PI3K δ/PI3K γ IC50 (selectivity)” value in experiment [3] (ratio of PI3K δ IC50 to PI3K γ IC50) is listed as “Y (Y = 50 to <850)”. Also, in experiment [4] (ratio of RAJI p110 δ assay IC50 to Raw264.7 p110 γ assay IC50), the “RAJI δ/Raw264.7 γ IC50 (selectivity)” value is “Y (Y = 50 to <850)”.
